Reference: the supplement of paper PMC12819154, “High-throughput peptide-centric local stability assay extends protein–ligand identification to membrane proteins, tissues and bacteria” (Nature Structural & Molecular Biology, 2025)
This is one part of the list. Most entries show no effect beyond the scatter of the controls.

Sequences of proteins named here, by UniProt entry; tags and fusion partners are left off. A change or cut given only in a name is not applied to a line headed by its entry.
UniProt Q9BX63: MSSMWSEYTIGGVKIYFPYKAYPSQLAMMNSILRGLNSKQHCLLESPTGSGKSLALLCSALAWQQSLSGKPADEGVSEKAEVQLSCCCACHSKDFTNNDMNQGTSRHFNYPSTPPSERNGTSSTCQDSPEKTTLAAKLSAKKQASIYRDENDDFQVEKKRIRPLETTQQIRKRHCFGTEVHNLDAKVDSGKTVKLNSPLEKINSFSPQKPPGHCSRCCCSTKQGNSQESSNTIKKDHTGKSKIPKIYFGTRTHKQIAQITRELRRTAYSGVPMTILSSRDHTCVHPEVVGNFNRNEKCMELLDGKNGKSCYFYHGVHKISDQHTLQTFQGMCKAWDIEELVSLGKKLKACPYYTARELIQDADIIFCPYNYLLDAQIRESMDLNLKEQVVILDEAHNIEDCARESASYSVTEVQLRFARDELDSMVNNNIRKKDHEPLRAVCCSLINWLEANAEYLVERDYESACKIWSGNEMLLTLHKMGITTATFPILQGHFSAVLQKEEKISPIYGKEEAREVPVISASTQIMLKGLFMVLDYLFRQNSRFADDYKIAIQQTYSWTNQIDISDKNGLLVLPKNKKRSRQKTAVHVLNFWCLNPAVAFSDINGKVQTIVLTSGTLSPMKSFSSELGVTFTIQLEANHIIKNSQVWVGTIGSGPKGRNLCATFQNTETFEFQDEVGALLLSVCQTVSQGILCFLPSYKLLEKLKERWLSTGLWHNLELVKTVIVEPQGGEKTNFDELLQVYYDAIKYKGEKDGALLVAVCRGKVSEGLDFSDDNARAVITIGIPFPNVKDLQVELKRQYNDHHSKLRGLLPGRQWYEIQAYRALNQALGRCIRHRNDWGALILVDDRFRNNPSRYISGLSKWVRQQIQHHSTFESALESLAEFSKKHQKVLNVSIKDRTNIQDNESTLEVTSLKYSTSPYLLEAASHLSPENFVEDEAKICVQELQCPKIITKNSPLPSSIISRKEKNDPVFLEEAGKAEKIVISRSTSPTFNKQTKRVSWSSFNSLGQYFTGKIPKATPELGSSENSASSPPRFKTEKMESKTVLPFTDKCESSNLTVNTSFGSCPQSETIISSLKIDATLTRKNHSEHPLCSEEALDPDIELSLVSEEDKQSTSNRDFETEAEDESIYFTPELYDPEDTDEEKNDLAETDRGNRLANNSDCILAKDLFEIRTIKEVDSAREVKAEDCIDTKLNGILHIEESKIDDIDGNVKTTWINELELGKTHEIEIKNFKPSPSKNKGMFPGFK
UniProt Q9BX70: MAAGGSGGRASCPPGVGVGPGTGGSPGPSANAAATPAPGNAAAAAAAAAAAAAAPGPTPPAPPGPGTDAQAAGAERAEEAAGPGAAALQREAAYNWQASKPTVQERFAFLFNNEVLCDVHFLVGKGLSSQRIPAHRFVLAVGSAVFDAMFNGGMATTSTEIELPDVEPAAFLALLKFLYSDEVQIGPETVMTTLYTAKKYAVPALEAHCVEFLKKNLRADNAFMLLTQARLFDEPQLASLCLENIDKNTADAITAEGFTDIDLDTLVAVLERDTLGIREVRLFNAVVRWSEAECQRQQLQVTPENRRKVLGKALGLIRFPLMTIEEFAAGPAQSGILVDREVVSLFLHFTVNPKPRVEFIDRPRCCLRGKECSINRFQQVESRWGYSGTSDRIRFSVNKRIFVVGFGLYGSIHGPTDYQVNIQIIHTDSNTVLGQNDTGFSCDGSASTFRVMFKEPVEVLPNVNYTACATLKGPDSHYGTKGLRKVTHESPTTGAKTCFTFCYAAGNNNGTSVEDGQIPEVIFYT
UniProt Q9C099: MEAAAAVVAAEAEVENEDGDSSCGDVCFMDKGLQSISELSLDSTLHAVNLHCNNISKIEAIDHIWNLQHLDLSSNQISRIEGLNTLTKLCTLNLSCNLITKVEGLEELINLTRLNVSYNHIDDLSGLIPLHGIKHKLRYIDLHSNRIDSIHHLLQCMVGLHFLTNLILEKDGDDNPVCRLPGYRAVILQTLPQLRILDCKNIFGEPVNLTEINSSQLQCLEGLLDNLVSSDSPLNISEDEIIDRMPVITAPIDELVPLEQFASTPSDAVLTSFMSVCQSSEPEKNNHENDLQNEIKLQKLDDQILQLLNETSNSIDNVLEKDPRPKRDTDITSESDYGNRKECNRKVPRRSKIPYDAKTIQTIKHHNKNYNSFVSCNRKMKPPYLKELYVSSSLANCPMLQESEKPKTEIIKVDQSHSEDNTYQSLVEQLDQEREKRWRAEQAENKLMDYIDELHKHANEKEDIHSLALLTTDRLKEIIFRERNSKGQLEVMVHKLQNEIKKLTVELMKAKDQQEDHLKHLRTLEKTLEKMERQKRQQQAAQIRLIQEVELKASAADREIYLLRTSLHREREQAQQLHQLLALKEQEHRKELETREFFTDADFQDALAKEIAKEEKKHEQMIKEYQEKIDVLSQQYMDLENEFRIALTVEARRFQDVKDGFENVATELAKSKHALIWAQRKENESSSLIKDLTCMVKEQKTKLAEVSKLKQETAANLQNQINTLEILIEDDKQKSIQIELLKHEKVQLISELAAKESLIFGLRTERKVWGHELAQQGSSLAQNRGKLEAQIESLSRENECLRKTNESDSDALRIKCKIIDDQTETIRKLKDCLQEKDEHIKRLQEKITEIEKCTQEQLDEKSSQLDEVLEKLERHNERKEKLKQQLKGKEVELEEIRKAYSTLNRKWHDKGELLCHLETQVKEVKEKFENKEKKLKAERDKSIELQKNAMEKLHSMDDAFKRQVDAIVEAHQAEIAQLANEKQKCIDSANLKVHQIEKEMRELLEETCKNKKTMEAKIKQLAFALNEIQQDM
UniProt Q9H081: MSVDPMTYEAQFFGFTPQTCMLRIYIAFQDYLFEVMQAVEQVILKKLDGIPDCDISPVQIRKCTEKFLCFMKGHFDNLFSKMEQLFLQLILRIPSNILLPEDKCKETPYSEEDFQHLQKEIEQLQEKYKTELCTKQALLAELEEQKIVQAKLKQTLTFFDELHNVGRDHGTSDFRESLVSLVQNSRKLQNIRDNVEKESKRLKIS
UniProt Q9BZL1: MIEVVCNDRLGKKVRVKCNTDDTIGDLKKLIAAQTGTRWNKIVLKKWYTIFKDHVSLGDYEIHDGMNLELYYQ
UniProt Q9H1B7, whole entry: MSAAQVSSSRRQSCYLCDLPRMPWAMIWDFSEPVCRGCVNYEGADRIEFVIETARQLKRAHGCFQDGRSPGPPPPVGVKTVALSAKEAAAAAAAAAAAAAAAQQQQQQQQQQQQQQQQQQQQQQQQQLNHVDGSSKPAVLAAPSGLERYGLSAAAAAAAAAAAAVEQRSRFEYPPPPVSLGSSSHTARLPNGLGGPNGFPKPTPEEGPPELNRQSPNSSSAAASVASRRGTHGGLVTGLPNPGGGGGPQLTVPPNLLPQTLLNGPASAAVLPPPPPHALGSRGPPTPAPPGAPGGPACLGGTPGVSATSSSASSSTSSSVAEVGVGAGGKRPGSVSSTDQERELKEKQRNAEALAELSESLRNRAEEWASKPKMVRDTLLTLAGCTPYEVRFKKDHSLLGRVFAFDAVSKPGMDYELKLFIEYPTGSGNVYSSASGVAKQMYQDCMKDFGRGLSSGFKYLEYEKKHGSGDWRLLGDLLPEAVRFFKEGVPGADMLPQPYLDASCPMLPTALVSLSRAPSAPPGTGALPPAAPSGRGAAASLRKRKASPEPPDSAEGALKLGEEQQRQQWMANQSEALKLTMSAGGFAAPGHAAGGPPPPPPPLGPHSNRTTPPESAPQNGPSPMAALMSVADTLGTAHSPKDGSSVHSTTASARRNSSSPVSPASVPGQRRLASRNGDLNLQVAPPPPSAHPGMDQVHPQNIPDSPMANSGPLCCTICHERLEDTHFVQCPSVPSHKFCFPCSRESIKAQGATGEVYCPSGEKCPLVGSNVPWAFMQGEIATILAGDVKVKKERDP
UniProt Q9GZT8: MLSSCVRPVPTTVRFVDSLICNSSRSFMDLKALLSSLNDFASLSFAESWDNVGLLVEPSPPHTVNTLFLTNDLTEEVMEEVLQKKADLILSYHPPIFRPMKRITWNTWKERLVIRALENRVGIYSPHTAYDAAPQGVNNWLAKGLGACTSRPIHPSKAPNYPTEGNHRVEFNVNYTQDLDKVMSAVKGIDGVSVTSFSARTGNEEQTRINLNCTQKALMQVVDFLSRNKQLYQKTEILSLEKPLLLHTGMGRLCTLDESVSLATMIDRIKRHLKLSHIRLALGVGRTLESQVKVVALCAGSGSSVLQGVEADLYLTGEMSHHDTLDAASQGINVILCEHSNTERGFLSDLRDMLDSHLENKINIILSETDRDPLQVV
UniProt Q9H2F5, whole entry: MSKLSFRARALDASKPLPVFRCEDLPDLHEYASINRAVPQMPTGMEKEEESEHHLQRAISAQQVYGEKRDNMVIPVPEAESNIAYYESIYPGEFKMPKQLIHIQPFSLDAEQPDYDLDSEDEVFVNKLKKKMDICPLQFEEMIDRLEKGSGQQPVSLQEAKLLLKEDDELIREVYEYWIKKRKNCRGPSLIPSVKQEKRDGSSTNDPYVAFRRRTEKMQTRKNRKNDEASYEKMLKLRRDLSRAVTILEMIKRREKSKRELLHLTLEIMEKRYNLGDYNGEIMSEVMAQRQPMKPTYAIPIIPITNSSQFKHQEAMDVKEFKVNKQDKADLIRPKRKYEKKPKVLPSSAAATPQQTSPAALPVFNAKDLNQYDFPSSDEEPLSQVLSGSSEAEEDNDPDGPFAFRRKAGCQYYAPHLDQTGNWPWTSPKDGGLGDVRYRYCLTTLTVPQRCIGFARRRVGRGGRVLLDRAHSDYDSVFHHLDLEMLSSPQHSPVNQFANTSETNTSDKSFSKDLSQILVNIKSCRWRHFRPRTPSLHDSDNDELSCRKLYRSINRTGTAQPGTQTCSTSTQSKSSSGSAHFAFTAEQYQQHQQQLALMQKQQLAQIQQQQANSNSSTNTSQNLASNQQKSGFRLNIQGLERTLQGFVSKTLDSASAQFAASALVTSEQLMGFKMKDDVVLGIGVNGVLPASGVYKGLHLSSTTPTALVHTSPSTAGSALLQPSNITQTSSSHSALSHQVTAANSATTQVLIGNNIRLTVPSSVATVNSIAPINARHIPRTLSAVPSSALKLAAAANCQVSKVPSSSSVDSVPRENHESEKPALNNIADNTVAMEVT
UniProt Q9H3U1: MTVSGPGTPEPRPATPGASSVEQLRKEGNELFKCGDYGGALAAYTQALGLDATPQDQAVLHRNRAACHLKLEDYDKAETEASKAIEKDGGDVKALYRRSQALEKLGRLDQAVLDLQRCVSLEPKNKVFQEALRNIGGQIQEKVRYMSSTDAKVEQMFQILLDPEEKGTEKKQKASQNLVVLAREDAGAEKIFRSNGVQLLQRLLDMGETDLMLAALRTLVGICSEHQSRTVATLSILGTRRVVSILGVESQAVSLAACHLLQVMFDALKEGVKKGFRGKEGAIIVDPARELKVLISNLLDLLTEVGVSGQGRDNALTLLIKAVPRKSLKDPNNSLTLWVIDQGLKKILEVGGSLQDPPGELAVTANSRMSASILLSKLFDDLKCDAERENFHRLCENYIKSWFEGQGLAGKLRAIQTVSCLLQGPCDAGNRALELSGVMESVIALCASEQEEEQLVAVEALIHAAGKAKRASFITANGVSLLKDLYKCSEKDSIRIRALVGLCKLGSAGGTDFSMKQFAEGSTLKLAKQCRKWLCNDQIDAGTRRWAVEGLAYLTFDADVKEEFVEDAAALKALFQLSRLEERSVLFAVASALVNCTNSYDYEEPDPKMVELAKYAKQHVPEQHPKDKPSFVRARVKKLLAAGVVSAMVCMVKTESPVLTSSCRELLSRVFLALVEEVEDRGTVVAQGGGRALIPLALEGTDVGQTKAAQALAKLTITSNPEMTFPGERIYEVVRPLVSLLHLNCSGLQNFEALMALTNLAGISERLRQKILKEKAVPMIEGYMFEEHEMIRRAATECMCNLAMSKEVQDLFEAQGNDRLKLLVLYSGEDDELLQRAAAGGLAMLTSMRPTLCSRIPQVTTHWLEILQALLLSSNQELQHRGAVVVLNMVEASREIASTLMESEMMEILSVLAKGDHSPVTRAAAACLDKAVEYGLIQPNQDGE
UniProt Q9H0W5: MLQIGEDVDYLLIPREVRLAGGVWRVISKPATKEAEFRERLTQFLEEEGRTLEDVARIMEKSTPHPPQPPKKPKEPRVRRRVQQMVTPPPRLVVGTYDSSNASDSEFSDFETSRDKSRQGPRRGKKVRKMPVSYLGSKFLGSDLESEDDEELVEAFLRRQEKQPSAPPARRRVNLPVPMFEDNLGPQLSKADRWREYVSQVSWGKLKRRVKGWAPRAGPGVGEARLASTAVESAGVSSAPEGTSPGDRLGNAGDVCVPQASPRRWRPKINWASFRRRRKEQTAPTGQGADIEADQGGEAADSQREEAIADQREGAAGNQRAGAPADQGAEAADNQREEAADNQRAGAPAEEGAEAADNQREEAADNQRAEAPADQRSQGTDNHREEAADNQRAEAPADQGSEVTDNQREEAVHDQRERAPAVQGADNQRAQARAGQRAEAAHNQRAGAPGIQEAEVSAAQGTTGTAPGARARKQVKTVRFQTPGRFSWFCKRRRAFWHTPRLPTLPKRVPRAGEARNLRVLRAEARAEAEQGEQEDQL

Each target was assayed with CN[C@@H]1C[C@H]2O[C@@](C)([C@@H]1OC)n1c3ccccc3c3c4c(c5c6ccccc6n2c5c31)C(=O)NC4 [staurosporine] (assay: log2 fold change of tryptic peptide abundance, ligand vs vehicle (limited proteolysis) (log2 ratio); higher = more trypsin-susceptible (destabilized)). Details: ligand concentration: 20 uM; sample: K562 cleared lysate; digestion: 4 min, 22 C (HT-PELSA RT4min, Orbitrap Astral).
For “NLN (peptide sequence: VTAFLDDLSQK, peptide start residue: 315) (UniProt Q9BYT8)”, the log2 fold change was -0.162.
“BRIP1 (peptide sequence: ISDQHTLQTFQGMCK, peptide start residue: 319) (UniProt Q9BX63)” gave a log2 fold change of 0.619.
Work on “SPRTN (peptide sequence: NSHLVSPAVSNSHQNVLSNYFPR, peptide start residue: 312) (UniProt Q9H040)” yielded a log2 fold change of -0.456.
Target “BTBD2 (peptide sequence: AEEAAGPGAAALQR, peptide start residue: 77) (UniProt Q9BX70)” has a log2 fold change of 0.131.
For “HDHD2 (peptide sequence: AVLVDLSGTLHIEDAAVPGAQEALKR, peptide start residue: 9) (UniProt Q9H0R4)”, the log2 fold change was -0.918.
“REXO4 (peptide sequence: QKSQAPEKPLVISQMGSK, peptide start residue: 80) (UniProt Q9GZR2)” showed a log2 fold change of 0.627.
For “UCK2 (peptide sequence: IVQLLGQNEVDYR, peptide start residue: 40) (UniProt Q9BZX2)”, the log2 fold change was -0.409.
In the case of “GTPBP2 (peptide sequence: RGFQVTVHVGNVR, peptide start residue: 521) (UniProt Q9BX10)”, the log2 fold change is reported as -0.562.
With “LRRCC1 (peptide sequence: LIQEVELK, peptide start residue: 545) (UniProt Q9C099)” the log2 fold change was -0.158.
Work on “PPA2 (peptide sequence: EENGIPMKK, peptide start residue: 74) (UniProt Q9H2U2)” yielded a log2 fold change of 0.391.
For “CLPB (peptide sequence: LDMSEFQER, peptide start residue: 409) (UniProt Q9H078)”, the log2 fold change was 0.299.
Work on “C1orf198 (peptide sequence: ASMAAAIAASR, peptide start residue: 2) (UniProt Q9H425)” yielded a log2 fold change of 0.189.
With “POLR1E (peptide sequence: FTLYENKDSTNPR, peptide start residue: 41) (UniProt Q9GZS1)” the log2 fold change was -0.288.
With “MIS12 (peptide sequence: DNVEKESK, peptide start residue: 193) (UniProt Q9H081)” the log2 fold change was -0.809.
“UniProt Q9BZL1 (peptide sequence: VKCNTDDTIGDLKK, peptide start residue: 16)” gave a log2 fold change of 0.199.
For “ISCU (peptide sequence: GKTVEEALTIK, peptide start residue: 111) (UniProt Q9H1K1)”, the log2 fold change was 0.344.
“ATG5 (peptide sequence: LFRPVAADGQLHTLGDLLK, peptide start residue: 202) (UniProt Q9H1Y0)” was tested, and the log2 fold change was -0.289.
In the case of “SORBS1 (peptide sequence: SKSEMSYIDGEK, peptide start residue: 479) (UniProt Q9BX66)”, the log2 fold change is reported as -0.518.
“UniProt Q9H1B7 (peptide sequence: RNSSSPVSPASVPGQR, peptide start residue: 655)” was tested, and the log2 fold change was -1.09.
Target “GGNBP2 (peptide sequence: EVLSALSQLVPCVGCR, peptide start residue: 78) (UniProt Q9H3C7)” has a log2 fold change of 0.365.
For “NIF3L1 (peptide sequence: ALMQVVDFLSR, peptide start residue: 217) (UniProt Q9GZT8)”, the log2 fold change was -0.0955.
“NACA4P (peptide sequence: NILFVITKPDVYK, peptide start residue: 1964) (UniProt Q9BZK3)” showed a log2 fold change of -0.109.
For “ZYG11B (peptide sequence: HGRPPPCKK, peptide start residue: 729) (UniProt Q9C0D3)”, the log2 fold change was 0.434.
Target “RAB33B (peptide sequence: IQLWDTAGQER, peptide start residue: 84) (UniProt Q9H082)” has a log2 fold change of 0.193.
“EPC1 (peptide sequence: EVYEYWIK, peptide start residue: 173) (UniProt Q9H2F5)” was tested, and the log2 fold change was -0.506.
“UNC45A (peptide sequence: KSLKDPNNSLTLWVIDQGLK, peptide start residue: 326) (UniProt Q9H3U1)” gave a log2 fold change of -0.186.
With “CCDC8 (peptide sequence: INWASFR, peptide start residue: 269) (UniProt Q9H0W5)” the log2 fold change was -0.246.
“FAM126A (peptide sequence: LIYVSER, peptide start residue: 491) (UniProt Q9BYI3)” gave a log2 fold change of 0.182.
“ILKAP (peptide sequence: RCGVTSVPDIRR, peptide start residue: 300) (UniProt Q9H0C8)” gave a log2 fold change of -0.979.
“SRR (peptide sequence: AVVTHSSGNHGQALTYAAK, peptide start residue: 78) (UniProt Q9GZT4)” showed a log2 fold change of -0.189.
With “NUCKS1 (peptide sequence: EEDEEPESPPEKK, peptide start residue: 207) (UniProt Q9H1E3)” the log2 fold change was -0.44.
“UniProt Q9C0A6 (peptide sequence: SVYSTHNYGTTQR, peptide start residue: 38)” showed a log2 fold change of -0.383.
For “TMEM59 (peptide sequence: SKTEDHEEAGPLPTK, peptide start residue: 301) (UniProt Q9BXS4)”, the log2 fold change was -0.27.
“MAP1LC3B (peptide sequence: QLPVLDKTK, peptide start residue: 43) (UniProt Q9GZQ8)” was tested, and the log2 fold change was 0.361.
“DOCK9 (peptide sequence: EVGTALQEFR, peptide start residue: 1121) (UniProt Q9BZ29)” was tested, and the log2 fold change was 0.347.
“BCL2L13 (peptide sequence: QMLLELTR, peptide start residue: 162) (UniProt Q9BXK5)” showed a log2 fold change of 0.397.
With “PARD6B (peptide sequence: LLEEDGTIITL, peptide start residue: 362) (UniProt Q9BYG5)” the log2 fold change was -0.276.
